# In patent publication EP1161262B1 (University of Maryland, Baltimore, dated 2008):
# Sequences of proteins named here, by UniProt entry; tags and fusion partners are left off. Residues count along the entry.
# UniProt P21926, residues 2-228: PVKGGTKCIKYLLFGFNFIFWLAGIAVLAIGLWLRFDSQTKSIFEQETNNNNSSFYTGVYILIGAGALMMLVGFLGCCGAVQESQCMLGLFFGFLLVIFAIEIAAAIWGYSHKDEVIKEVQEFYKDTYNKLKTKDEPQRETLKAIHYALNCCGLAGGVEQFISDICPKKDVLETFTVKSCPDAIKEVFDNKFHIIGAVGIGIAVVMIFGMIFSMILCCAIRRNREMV
# These are yes or no findings as the source states them, for the method shown. Binding seen in cells or lysates may run through a third protein. Some results given as binding are weak or reduced against the parent protein; the word gives no strength.
# T1: tetraspanin protein CD9 of murine LL/2 cells (murine) (UniProt P40240)
# T1 sequence (looked up): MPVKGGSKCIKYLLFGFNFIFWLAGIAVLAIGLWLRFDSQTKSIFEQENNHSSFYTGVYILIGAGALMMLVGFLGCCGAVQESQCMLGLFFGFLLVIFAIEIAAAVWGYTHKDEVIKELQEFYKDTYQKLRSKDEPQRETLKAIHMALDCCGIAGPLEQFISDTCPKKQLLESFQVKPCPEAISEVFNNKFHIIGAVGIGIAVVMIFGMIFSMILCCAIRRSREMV
# B1: colligin/Hsp47 of the murine Lewis Lung Carcinoma (LL/2) cell line (protein, UniProt P19324 18-417, looked up)
# chain: AEVKKPLEAAAPGTAEKLSSKATTLAERSTGLAFSLYQAMAKDQAVENILLSPLVVASSLGLVSLGGKATTASQAKAVLSAEKLRDEEVHTGLGELLRSLSNSTARNVTWKLGSRLYGPSSVSFADDFVRSSKQHYNCEHSKINFRDKRSALQSINEWASQTTDGKLPEVTKDVERTDGALLVNAMFFKPHWDEKFHHKMVDNRGFMVTRSYTVGVTMMHRTGLYNYYDDEKEKLQMVEMPLAHKLSSLIILMPHHVEPLERLEKLLTKEQLKAWMGKMQKKAVAISLPKGVVEVTHDLQKHLAGLGLTEAIDKNKADLSRMSGKKDLYLASVFHATAFEWDTEGNPFDQDIYGREELRSPKLFYADHPFIFLVRDNQSGSLLFIGRLVRPKGDKMRDEL
# B2: colligin/Hsp47 on the surface of human carcinoma cells (protein, UniProt P50454 19-418, looked up)
# chain: AEVKKPAAAAAPGTAEKLSPKAATLAERSAGLAFSLYQAMAKDQAVENILVSPVVVASSLGLVSLGGKATTASQAKAVLSAEQLRDEEVHAGLGELLRSLSNSTARNVTWKLGSRLYGPSSVSFADDFVRSSKQHYNCEHSKINFRDKRSALQSINEWAAQTTDGKLPEVTKDVERTDGALLVNAMFFKPHWDEKFHHKMVDNRGFMVTRSYTVGVMMMHRTGLYNYYDDEKEKLQIVEMPLAHKLSSLIILMPHHVEPLERLEKLLTKEQLKIWMGKMQKKAVAISLPKGVVEVTHDLQKHLAGLGLTEAIDKNKADLSRMSGKKDLYLASVFHATAFELDTDGNPFDQDIYGREELRSPKLFYADHPFIFLVRDTQSGSLLFIGRLVRPKGDKMRDEL
# Legend:
# [1] = biological target: T1, tetraspanin protein CD9 of murine LL/2 cells (murine); assay: DSP or DTSSP cross-linking of surface-labelled cells, co-immunoprecipitation
# [2] = biological target: tetraspanin protein CD9 of human SCC cells (human) (UniProt P21926); assay: as above
binding [1],binding [2],Binder
binds,–,B1
–,binds,B2
